Laboratory results: patent publication US6649628B1, “N-[2-hydroxy-3-(1-piperidinyl)propoxy]pyridine-1-oxide-3-carboximidoyl chloride and its use in the treatment of insulin resistance” (Biorex Kutato es Fejleszto RT, priority 1999, dated 2003)

Test system: high fat (HF) diet insulin resistant male Wistar rats
Experiment: Experiment 8: in vivo insulin-dependent glucose uptake (euglycaemic glucose clamp) in dietary induced insulin resistance
Conditions: 20 mg/kg daily, 3 weeks

| SMILES | effect on body weight | effect on food consumption |
| --- | --- | --- |
| O=C(O)/C=C\C(=O)O.[O-][n+]1cccc(C(Cl)=NOC[C@@H](O)CN2CCCCC2)c1 [A(−), (−)-/S/-N-[2-hydroxy-3-(1-piperidinyl)-propoxy]-pyridine-1-oxide-3-carboximidoyl chloride (Z)-2-butenedioate (1:1)] | did not affect | did not affect |
| O=C(O)/C=C\C(=O)O.[O-][n+]1cccc(C(Cl)=NOC[C@H](O)CN2CCCCC2)c1 [A(+), (+)-/R/-N-[2-hydroxy-3-(1-piperidinyl)-propoxy]-pyridine-1-oxide-3-carboximidoyl chloride (Z)-2-butenedioate (1:1)] | did not affect | did not affect |
